Among the data in publication PMC11564117 are binding values, retold here.

Amino acid sequences for entries named in this document (tags omitted).
UniProt Q13137: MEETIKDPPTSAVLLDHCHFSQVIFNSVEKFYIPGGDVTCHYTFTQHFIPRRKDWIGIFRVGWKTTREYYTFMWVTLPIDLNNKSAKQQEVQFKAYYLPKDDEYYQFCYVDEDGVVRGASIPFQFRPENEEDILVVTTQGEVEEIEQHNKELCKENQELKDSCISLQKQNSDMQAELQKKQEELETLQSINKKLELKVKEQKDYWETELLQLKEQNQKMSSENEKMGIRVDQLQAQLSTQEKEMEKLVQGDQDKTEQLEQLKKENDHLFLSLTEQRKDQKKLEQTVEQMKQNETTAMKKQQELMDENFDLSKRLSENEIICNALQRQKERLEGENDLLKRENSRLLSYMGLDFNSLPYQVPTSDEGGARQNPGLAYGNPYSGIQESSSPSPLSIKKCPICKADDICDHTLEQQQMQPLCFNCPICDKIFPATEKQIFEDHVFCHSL

The target of this assay is NAP1 delta-NDP52 (S37K/A44E), bait of the bead assay (human) (UniProt Q9H6S1). In words: microscopy-based bead assay; Extended Data Fig. 3b: NAP1 wild type or point mutants on beads; NDP52–mCherry, FIP200–GFP and mCherry–TBK1 250 nM; 1 h; confocal imaging; both purified.

Results are given in words; binding and its absence hold for the method and conditions named.

For the substance “mCherry–NDP52 (from UniProt Q13137 1-446)”, the binding result is “no binding (tested: 250 nM)”.
